Taken from: PubChem BioAssay AID743454 (Peter MacCallum Cancer Centre, 2014)

Purpose: 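Knock-downs lowering viability or raising caspase 3/7 activity in vorinostat-treated resistant cells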 (primary screen)
Cells: human HCT116-VR colon cancer cells, selected for vorinostat resistance
Reagent: siRNA pool against human genes, 40 nM siRNA pool
Duration: vorinostat for 24 h, read-out about 72 h after transfection
Treatment: vorinostat at 2.5 µM final
Detection: 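Cell viability by CellTiter-Fluor and caspase 3/7 activity by luminescence, each scaled to mock wells per plate, duplicates averaged, then robust z-scored over all plates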
Reading the numbers: viability robust z-score: higher = more viable cells than screen typical; caspase robust z-score: higher = more caspase 3/7 activity than screen typical
Call rule: 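a knock-down is a hit when classed RV1 or RV2 for lowered viability, or CA1 or CA2 for caspase activation; those lethal without drug were dropped; hits were retested singly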
Shown is a random part of about 18,000 deposited reagents. 450 of them (2.5%) count as active. 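Single biological run; no consistent viability z cut-off exists, so the class columns, not z-scores, define the calls.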 Reagent sequences are not shown.

gene | PubChem SID | viability hit class | caspase hit class | viability robust z-score | caspase robust z-score | Outcome
SREBF2 (GeneID 6721) | SID134314281 | no change | no change | 0.42 | 0.44 | inactive
GTPBP1 (GeneID 9567) | SID135623310 | no change | no change | -1.03 | 1.28 | inactive
CA2 (GeneID 760) | SID152152503 | no change | no change | 0.47 | 0.36 | inactive
SPIRE1 (GeneID 56907) | SID135624367 | no change | no change | 0.08 | -1.13 | inactive
ARHGEF17 (GeneID 9828) | SID134314467 | no change | no change | 1.04 | 0.3 | inactive
FMC1 (GeneID 154791) | SID152156453 | no change | CA2 (caspase activation) | -2.5 | 5.46 | active
TIMP1 (GeneID 7076) | SID135622196 | no change | no change | -0.01 | 1.11 | inactive
SMC1A (GeneID 8243) | SID134311995 | no change | no change | -0.14 | -0.33 | inactive
CCPG1 (GeneID 9236) | SID152147673 | no change | no change | -0.62 | 0.55 | inactive
RERGL (GeneID 79785) | SID134314487 | no change | no change | 0.38 | -0.22 | inactive
FKBP3 (GeneID 2287) | SID134314299 | no change | no change | -2.12 | 1.06 | inactive
OPHN1 (GeneID 4983) | SID135621775 | no change | no change | 0.16 | -0.54 | inactive
CSNK1G1 (GeneID 53944) | SID152156369 | no change | no change | -2.1 | 1.02 | inactive
TSPYL5 (GeneID 85453) | SID134319159 | no change | no change | -0.06 | -0.23 | inactive
DNTTIP1 (GeneID 116092) | SID134319222 | no change | no change | -0.61 | 1.15 | inactive
SRD5A2 (GeneID 6716) | SID152149909 | no change | no change | -2.51 | 2.94 | inactive
TRAPPC12 (GeneID 51112) | SID134320835 | no change | no change | -0.8 | -0.44 | inactive
PPP6R1 (GeneID 22870) | SID152150991 | no change | no change | -0.57 | 0.42 | inactive
DCBLD2 (GeneID 131566) | SID152153712 | no change | no change | 0.09 | -0.16 | inactive
ACTRT3 (GeneID 84517) | SID135622941 | no change | no change | -0.32 | -0.26 | inactive
TTC38 (GeneID 55020) | SID152147386 | no change | no change | 0.97 | -0.26 | inactive
HSD17B7 (GeneID 51478) | SID135621514 | no change | no change | 0.24 | -0.69 | inactive
RIOK1 (GeneID 83732) | SID56479042 | no change | no change | -1.63 | 1.12 | inactive
